Small-molecule microarray binding calls

Targets, with sequences 5′ to 3′:
PreQ1: PreQ1 riboswitch RNA pseudoknot, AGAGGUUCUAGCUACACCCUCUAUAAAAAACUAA. From B. subtilis. Hit rate about 0.7% of about 24,000 compounds.
SAM-II: SAM-II riboswitch RNA pseudoknot, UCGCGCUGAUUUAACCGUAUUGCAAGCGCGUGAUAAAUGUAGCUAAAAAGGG. Hit rate about 1% of about 21,000 compounds.
TPP: TPP riboswitch RNA three-way junction, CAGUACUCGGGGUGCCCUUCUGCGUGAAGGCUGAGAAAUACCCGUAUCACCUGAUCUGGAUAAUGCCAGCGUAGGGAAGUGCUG. Hit rate about 0.7% of about 24,000 compounds.

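The test is a small-molecule microarray: each compound is printed twice on a reactive slide, and binding shows as fluorescence of the labelled oligonucleotide after washing. For the PreQ1, TPP and SAM-II riboswitches the laboratory earlier reported (doi:10.1038/s41467-019-09493-3) 1 µM RNA, 2 h, and a rule that included a mean Z-score above 3 (spot signal-to-noise against the whole library), a score well above that on a control array, and duplicate spots agreeing (coefficient of variation under 100). The data file gives only the calls; its cut-offs may differ, and compounds hitting several targets are kept. The calls come from the array alone, and fixing a compound to the slide can hide its binding.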
A compound is marked active if it was called a hit and inactive if it was screened but was not.
The compounds are a random part of those screened.
A target missing from an entry has no call listed here.

For CC1=C(C(=O)OC(C)(C)C)C2(C(=O)Nc3ccc(Br)cc32)C(C(=O)OC(C)C)=C(N)O1 (stereo not drawn) the calls were PreQ1: inactive; SAM-II: inactive; TPP: inactive. NC(=O)CNCc1cc(O)c2cccc(Cl)c2n1 was scored PreQ1: inactive; SAM-II: inactive; TPP: inactive. For C=CCC(NCc1ccccc1)c1ccco1 (stereo not drawn) the calls were PreQ1: inactive; SAM-II: inactive; TPP: inactive. Calls for CN1CC2(CCCN(Cc3cccnc3N)CC2)OC1=O (stereo not drawn) are PreQ1: inactive; SAM-II: inactive; TPP: inactive.

Calls for NC(=O)SCC(=O)Nc1ccccc1C(=O)O are PreQ1: inactive; SAM-II: inactive; TPP: inactive. O=c1sc2ccccc2c(NCc2ccccc2)c1[N+](=O)[O-] was scored PreQ1: inactive; SAM-II: inactive; TPP: inactive. For Cc1ccc(Nc2nc3ccccc3c3nncn23)c(C)c1 the calls were PreQ1: inactive; SAM-II: inactive; TPP: inactive. For Cc1ccc2c(c1)c1c(n2CC(O)CN2CCCCCC2)C(=O)CCC1 (stereo not drawn) the calls were PreQ1: inactive; SAM-II: inactive; TPP: inactive.

For CCOC(=O)c1nc2sc3c(c2c(=O)[nH]1)CCCC3 the calls were PreQ1: inactive; SAM-II: inactive; TPP: inactive. For Cc1[nH]c(=O)[nH]c(=O)c1CC(=O)N1CCC(N2CCC(O)CC2)CC1 the calls were PreQ1: inactive; SAM-II: inactive; TPP: inactive. Calls for Cc1cccc(-n2nnc(-c3nc(-c4ccc(F)cc4)no3)c2N)c1C are PreQ1: inactive; TPP: inactive. Calls for CS(=O)(=O)N(CC(O)Cn1c2ccccc2c2ccccc21)c1ccc(Cl)cc1 (stereo not drawn) are PreQ1: inactive; SAM-II: inactive; TPP: inactive.

With CC(C)O[C@H]1CN(C(=O)c2cccc(CCC(C)(C)O)c2)C[C@@H]1O the screen gave PreQ1: inactive; SAM-II: inactive; TPP: inactive. With Cc1nc[nH]c1CSCCNCC1(O)CCCNC1 (stereo not drawn) the screen gave PreQ1: inactive; SAM-II: inactive; TPP: inactive. With Oc1ccccc1Nc1ccccn1 the screen gave PreQ1: inactive; SAM-II: inactive; TPP: inactive. For OC1(CN2CCC(Oc3cccc(C(F)(F)F)c3)CC2)CCNC1 (stereo not drawn) the calls were PreQ1: inactive; SAM-II: inactive; TPP: inactive.

With CC(CO)NC(=O)Cn1c(-c2ccco2)nn(-c2ccc(Cl)cc2)c1=O (stereo not drawn) the screen gave PreQ1: inactive; SAM-II: inactive; TPP: inactive. Calls for Cc1ccc2nc(-c3cccs3)c(NC3CCCC3)n2c1 are PreQ1: inactive; SAM-II: inactive; TPP: inactive. Calls for CN1C(=O)C(Cc2nc3ccccc3c(=O)n2CCCO)c2ccccc21 (stereo not drawn) are PreQ1: inactive; TPP: inactive. Calls for COc1cc(CNCCc2c[nH]c3ccccc23)cc(OC)c1OC are PreQ1: inactive; SAM-II: inactive; TPP: inactive.

Calls for COc1cc2c(cc1OC)C(O)C(C)(C)N(CCC(c1ccccc1)c1ccccc1)C2.Cl (stereo not drawn) are PreQ1: inactive; SAM-II: inactive; TPP: inactive. CC(O)c1cccc(N2CCC(c3nccn3Cc3cccnc3)CC2)n1 (stereo not drawn) was scored PreQ1: inactive; SAM-II: inactive; TPP: inactive. Oc1ccc(NCc2ccc(Br)cc2)cc1 was scored PreQ1: inactive; SAM-II: inactive; TPP: inactive. For O=C(C=CC=Cc1ccc2c(c1)OCO2)N1CCCCC1 the calls were PreQ1: inactive; SAM-II: inactive; TPP: inactive.

For O=C(O)c1ccccc1OCC(O)Cn1cnc2ccccc21 (stereo not drawn) the calls were PreQ1: inactive; SAM-II: inactive; TPP: inactive. Calls for CC1(C)Cc2c(c(N3CCOCC3)nc3sc4c(N(CCO)CCO)ncnc4c23)CO1 are PreQ1: inactive; SAM-II: inactive; TPP: inactive. For NC1=C(C(=O)c2cccs2)N2CC=CC=C2C1C(=O)Nc1ccccc1Cl (stereo not drawn) the calls were PreQ1: inactive; SAM-II: inactive; TPP: inactive. For CCCOc1ccc(N2C(=O)CC(NC3CCCCC3)C2=O)cc1 (stereo not drawn) the calls were PreQ1: inactive; SAM-II: inactive; TPP: inactive.

Nc1c(C(=O)c2ccc(Br)cc2)sc2nc(-c3ccccn3)ccc12 was scored PreQ1: inactive; SAM-II: inactive; TPP: inactive. Calls for COC(=O)c1c(-c2ccc(OC)cc2OC)csc1N are PreQ1: inactive; SAM-II: inactive; TPP: inactive. With COc1cccc(CNc2ccc3c(c2)ncn3C2CCCCC2)c1 the screen gave PreQ1: inactive; SAM-II: inactive; TPP: inactive. OC[C@H]1CN(Cc2ccc3nsnc3c2)C[C@H]1CN1CCOCC1 was scored PreQ1: inactive; SAM-II: inactive; TPP: inactive.

Cc1ccc(Nc2c(S(=O)(=O)c3ccc(Cl)cc3)cnc3ccccc23)cc1C was scored PreQ1: inactive; TPP: inactive. Calls for O=C(NCCCN1CCCCC1CO)c1cccc(-c2cn[nH]c2)c1 (stereo not drawn) are PreQ1: inactive; SAM-II: inactive; TPP: inactive. Cc1cc(Nc2ccc(C(=O)N3CCCCC3)cc2)n2nc(-c3cccnc3)nc2n1 was scored PreQ1: inactive; TPP: inactive. For CN1C[C@@H](N)C[C@H]1C(=O)NCC1(N2CCOCC2)CCCCC1 the calls were PreQ1: inactive; SAM-II: inactive; TPP: inactive.

The last 4 entries again:

* Cc1ccc(Nc2c(S(=O)(=O)c3ccc(Cl)cc3)cnc3ccccc23)cc1C : PreQ1: inactive; TPP: inactive
* O=C(NCCCN1CCCCC1CO)c1cccc(-c2cn[nH]c2)c1 (stereo not drawn) : PreQ1: inactive; SAM-II: inactive; TPP: inactive
* Cc1cc(Nc2ccc(C(=O)N3CCCCC3)cc2)n2nc(-c3cccnc3)nc2n1 : PreQ1: inactive; TPP: inactive
* CN1C[C@@H](N)C[C@H]1C(=O)NCC1(N2CCOCC2)CCCCC1 : PreQ1: inactive; SAM-II: inactive; TPP: inactive

Source: the ROBIN nucleic acid binder screens (doi:10.1002/anie.202211358).